According to paper PMC10212976:
No constants are given. Whether binding was seen depends on the method and setting. Binding seen in cells or lysates may run through a third protein. A yes stands for co-enrichment or nearness to the bait. Other partners may have been found. Where a sequence is shown, tags or fusion partners need not be part of it.

Amino acid sequences for entries named in this document (tags omitted). A change or cut given only in a name is not applied to a line headed by its entry.
UniProt O60179: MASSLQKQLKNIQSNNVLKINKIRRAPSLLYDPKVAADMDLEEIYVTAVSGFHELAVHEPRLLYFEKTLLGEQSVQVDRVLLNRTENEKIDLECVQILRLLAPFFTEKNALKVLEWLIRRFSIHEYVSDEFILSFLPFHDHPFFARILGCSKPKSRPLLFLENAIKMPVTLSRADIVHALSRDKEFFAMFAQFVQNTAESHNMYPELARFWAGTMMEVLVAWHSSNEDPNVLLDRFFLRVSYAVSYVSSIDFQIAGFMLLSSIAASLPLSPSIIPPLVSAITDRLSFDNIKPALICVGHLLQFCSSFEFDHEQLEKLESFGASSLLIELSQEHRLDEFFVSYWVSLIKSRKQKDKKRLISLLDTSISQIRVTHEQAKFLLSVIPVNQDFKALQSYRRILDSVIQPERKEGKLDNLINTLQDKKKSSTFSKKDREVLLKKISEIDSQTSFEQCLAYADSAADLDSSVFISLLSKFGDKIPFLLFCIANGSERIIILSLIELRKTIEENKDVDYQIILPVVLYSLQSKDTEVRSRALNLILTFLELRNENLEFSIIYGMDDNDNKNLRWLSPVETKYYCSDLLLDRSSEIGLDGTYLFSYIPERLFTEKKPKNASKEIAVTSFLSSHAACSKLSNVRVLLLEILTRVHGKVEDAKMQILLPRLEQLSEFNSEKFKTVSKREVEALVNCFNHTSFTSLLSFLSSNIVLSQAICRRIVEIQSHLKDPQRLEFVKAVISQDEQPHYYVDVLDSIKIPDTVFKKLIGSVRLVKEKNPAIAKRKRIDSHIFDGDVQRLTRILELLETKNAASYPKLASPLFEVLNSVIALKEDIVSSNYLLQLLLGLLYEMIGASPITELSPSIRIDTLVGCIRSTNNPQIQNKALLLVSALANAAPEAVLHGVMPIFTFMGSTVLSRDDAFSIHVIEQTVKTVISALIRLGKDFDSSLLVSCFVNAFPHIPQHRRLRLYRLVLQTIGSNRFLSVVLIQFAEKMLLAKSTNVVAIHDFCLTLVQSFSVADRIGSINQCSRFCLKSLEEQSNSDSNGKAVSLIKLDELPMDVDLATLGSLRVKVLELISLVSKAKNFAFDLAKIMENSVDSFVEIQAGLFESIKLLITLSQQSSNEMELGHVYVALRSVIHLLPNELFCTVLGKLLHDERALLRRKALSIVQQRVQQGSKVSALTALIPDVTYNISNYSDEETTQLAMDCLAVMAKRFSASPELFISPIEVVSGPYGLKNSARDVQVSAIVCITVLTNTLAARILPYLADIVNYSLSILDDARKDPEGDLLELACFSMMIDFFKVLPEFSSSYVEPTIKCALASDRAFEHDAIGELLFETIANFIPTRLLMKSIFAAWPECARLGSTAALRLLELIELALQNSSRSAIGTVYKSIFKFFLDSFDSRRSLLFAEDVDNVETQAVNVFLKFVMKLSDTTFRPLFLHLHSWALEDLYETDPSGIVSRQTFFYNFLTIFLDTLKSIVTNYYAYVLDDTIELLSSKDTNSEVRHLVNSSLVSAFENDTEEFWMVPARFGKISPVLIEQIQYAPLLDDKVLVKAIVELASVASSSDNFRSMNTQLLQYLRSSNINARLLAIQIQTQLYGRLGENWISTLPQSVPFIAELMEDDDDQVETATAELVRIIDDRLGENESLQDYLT
UniProt P15398: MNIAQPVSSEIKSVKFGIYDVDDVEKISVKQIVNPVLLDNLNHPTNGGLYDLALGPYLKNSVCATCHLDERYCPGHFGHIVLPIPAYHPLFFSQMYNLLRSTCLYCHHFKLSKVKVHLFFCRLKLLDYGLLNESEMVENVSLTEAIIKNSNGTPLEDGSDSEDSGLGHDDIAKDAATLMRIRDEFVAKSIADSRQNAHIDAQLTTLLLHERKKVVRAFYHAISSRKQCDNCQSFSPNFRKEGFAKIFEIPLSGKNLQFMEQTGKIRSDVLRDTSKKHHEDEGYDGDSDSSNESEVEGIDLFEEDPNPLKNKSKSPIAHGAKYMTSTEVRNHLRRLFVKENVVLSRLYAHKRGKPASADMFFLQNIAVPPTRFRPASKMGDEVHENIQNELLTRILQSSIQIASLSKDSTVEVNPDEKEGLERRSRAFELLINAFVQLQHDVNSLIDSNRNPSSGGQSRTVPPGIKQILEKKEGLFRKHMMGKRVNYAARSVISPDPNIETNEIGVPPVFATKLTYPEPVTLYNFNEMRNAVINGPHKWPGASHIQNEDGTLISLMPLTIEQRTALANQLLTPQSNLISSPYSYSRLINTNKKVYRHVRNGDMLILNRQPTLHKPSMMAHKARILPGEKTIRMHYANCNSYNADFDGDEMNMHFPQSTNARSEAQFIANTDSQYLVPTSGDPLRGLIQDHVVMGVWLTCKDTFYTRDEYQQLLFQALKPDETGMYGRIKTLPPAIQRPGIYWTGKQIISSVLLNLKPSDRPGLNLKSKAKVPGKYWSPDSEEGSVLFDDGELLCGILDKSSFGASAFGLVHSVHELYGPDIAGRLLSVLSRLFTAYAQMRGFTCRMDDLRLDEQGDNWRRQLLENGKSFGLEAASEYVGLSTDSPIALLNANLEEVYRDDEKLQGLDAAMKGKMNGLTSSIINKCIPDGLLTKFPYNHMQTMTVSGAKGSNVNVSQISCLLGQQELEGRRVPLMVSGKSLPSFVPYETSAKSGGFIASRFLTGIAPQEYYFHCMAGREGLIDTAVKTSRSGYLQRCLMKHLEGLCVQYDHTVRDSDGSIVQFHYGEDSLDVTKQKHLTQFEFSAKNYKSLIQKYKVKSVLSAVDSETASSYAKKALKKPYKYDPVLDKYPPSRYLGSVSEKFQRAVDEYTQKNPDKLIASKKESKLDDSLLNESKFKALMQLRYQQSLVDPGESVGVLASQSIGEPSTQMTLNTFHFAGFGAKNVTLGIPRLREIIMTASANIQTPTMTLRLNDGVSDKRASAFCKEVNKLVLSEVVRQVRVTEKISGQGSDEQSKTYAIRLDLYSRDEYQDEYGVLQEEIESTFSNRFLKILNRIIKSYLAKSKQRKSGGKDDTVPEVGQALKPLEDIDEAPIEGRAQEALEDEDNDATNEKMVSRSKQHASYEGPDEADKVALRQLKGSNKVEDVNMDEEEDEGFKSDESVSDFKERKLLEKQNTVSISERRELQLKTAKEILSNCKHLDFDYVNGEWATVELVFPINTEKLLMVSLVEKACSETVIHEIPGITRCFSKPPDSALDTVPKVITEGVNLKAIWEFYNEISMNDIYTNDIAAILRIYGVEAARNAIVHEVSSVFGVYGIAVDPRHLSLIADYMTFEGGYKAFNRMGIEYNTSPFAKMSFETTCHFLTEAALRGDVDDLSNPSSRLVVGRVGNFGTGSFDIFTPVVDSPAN
UniProt Q9USJ8: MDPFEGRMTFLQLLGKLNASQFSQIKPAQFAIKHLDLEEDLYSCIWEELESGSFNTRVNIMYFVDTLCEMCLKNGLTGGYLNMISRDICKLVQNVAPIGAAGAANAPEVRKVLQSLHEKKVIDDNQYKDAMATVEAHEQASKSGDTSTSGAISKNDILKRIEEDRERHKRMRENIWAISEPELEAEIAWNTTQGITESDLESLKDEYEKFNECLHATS
UniProt Q9USU7: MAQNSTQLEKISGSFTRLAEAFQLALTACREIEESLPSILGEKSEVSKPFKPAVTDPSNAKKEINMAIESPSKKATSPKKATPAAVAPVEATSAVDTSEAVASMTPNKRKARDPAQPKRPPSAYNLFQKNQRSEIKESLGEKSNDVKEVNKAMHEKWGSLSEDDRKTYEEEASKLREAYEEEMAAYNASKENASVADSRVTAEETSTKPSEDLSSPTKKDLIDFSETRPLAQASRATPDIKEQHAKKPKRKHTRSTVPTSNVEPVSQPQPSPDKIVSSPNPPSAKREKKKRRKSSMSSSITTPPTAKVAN
UniProt O13877: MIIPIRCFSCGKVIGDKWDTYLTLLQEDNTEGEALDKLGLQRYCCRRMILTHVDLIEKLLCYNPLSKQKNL

B1: Rpc40 (protein, UniProt O94616 1-348)
chain: MAAVDRSRTEISVLSDRVTDVGSVDFPGYYFDEDNIWDLDKFKKNLKVSITSLDQETMVFEISGIDASIANAFRRILIAEIPTLAFEFVYIINNTSIIQDEVLSHRIGLVPISADPDMFKWFQHPLPGQEATHTDYDTVVFSLNKKCEFNKNAATDEKDPKRLYVNSEVYSGDLIWKPQGRQEERFADNPIRVVNPDIVVAKLRPGQEIDLEAHAILGIGQDHAKFSPVATASYRLLPTIHILSPIEGEDAVKFQKCFPKGVIELEEGPDGKKQARVADVRKDTVSRECLRHPEFADKVQLGRVRDHYLFSVESTGIMKPDVLFIKSIAVLKSKCLAVKSSLQNISSD
B2: Rpa34 (protein, UniProt Q9USZ4 1-251)
chain: MAKSSEFVNEESSEDESSVSSIEDQHSSKEPEQSVESNNHGESNAQEDVAEIAGLEKVQGKPVLTTNDLKKESNVFLVRLPPGMSADQISQLKVGSKPTVELKQENENTYQIREESTSSVRVFLPDEQGSYTSNEIKTGYVITETPKISQNIDTGITIPTQAPLVPQRKNLRQHFRPIGDAVGPESEPEAEPKSGIKEHILQETGDATVEELQNKGKEKQKELKKGKREKKDEEEKPKKKKQKKSSKKEKN
B3: Prh1 (protein, UniProt Q03319 1-719)
chain: MVKVSGKLRNGGSITKQNLTDGLVGGQRIKAPNKKKNRKASKNTTKKSTVSVVNFLEQDTDFGANEVVGSDNSSPEKRSENSPSKRKDILEQRKNLPIWEAHDTLCQQIQDNRVIVVVGETGSGKSTQIPQFLNECPYAQEGCVAITQPRRVAAVNLAKRVAAEQGCRLGEQVGYSIRFDDTTSKKTRIKYLTDGMLLRELINDPILSQYHTLILDEAHERTLMTDMLLGFVKKIIKKRPALRVIIMSATLNAERFSEFFDGAEICYISGRQYPVQIHYTYTPEPDYLDACLRTIFQLHTKLPPGDILVFLTGQDEIEALEALIKSYSKQLPSNLPQIQACPLFASLPQEQQLQVFLPALANHRKVVLSTNIAETSVTISGIRYVIDTGLAKIKQFNSKLGLESLTVQPISQSAAMQRSGRAGREAAGQCYRIYTEADFDKLPKETIPEIKRIDLSQAVLTLKARGQNDVINFHYMDPPSKEGLLRALEHLYSIGALDDNGHINDLGYQMSLIPLLPSLARAVLAAREHNCLSEVIDVVSCLSTDSMFLFPQEKRDEAIEARLKFLHSEGDLLTCLNALRQYLESSHDSRKQWCSQNFINRRALKTILDIRKQLREHCLKDGWELNSSPEVNSENLLLSFLSGYITNTALLHPDGSYRTIIGNQTISIHPSSSLFGKKVEAIMYHELVFTTKSYVRGVSSIRSNWLNAVAPHYLARRST
B4: Rrn3 (protein, UniProt Q10110 1-599)
chain: MPSIISSTNPQYINKCVNNGTMASSTNVPDRTVGSKSFASSVSKNDGRLMQQMLRAFVNKALDDKAEGNFAGYEDLRRQFAAKSDTKDAPSSLQLQNLLSALTCNVSRLDSSNSSLVMSVLDSVWVSRDESFVRCYTRFLGNLISAQSNYLPLVMTMLIQHMLYRPDSLAIHYEHAHMALKYVLELVPRAHSFLYSSILEEFPYKDESLLAQMTYISNVLSICEYVPSIKGPVLHAIIDKIIQIDVEIQVEVDDDDEEEDEVVTDDDGTSNADSEVITASTLYERHTAISSEMTSSTILTPPSLTDTRQLMQQLDQLLYTLFSYLDSNLKSTSRDRYLVYNSLIKSFVNTVLKTFRCRYTQFLIFWASQLDPEFTDIFLGVLTEVCLDPSQPYTLRLSGAMYIGSYVARAKALEKNTIQIIVNMMTRWVEAYLDQCENELSDDLLSKHSVFYAINQSIFYIFCFRWRELCVSDESESMEPRPNEWIPGLEILHRSVLSRLNPLRYCSPNIVLQFAKVANHLNFMYVYSIIEQNRKGIFREGFDTMDAYFPFDPYRLTKSSIIVQPFYNEWQQIPGLDDDEEEEDTDYESSTVMLGESPF
B5: Rpa43 (protein, UniProt O43036 1-173)
chain: MPDLSLYKQTVDLYLSIAPGHSRDPLNAIQEHMDSMILSKLPRINGIVLAYDNIRFLEKSAKVMYDSPFSFIWVRVDVLVFSPKKGDCLEGKINLVSPSHIGLLILGIFNASIPRKSIPKDWIFIEPDTTEEQGRWKTNDGNILEPGKDLEFVVDGIQREAGLTMVQGTLANS
B6: Rpa49 (protein, UniProt O14086 1-425)
chain: MAGDELKGKKRKYRDSHSGDEKSVKILPLSESSLPPLVTTISGFYPPENTRFQLLKKSNQSNRDASLIGRTERVQFEAKNQSTATVEANYCLAVADKTGRVKKIVPAKYLNTFERNILALQEKDKFLKKKHGTVSGTVMEQRANLGLAFGTRKSQKAIMEESANRVKAETLGDVKDQLVSNVQKATEALPTQEDIAAAQAQDRPIPPVNVGAESIEDAYKLEDIIPKEEFSAIYIKPLLENPDERNWAKLLPYRHSLFINERFQRLLSIEEVDQKRARILYYISLLQAFLFSRRSVGNRETLRKKLADPPEILIDGLIKRFTQTTGIGSVQVSSREVDKIICYILVLCLIVDNYSTDVLTLANDLNVKTMKANELFRTVGCRIMAYTETQRMALGLNKTDAKNHKRAVLKIPLEFPKPRRGRARN

What follows are molecules tested against T1, Seb1 fused to the TurboID biotin ligase (S. pombe) (UniProt Q9UTE3) (assay: proximity labelling; Seb1-TurboID expressed in S. pombe grown in YES with 50 µM biotin; RIPA lysate treated with benzonase; biotinylated proteins captured on Streptavidin-Sepharose, on-bead trypsin digest, LC-MS/MS; n = 1).
T1 sequence: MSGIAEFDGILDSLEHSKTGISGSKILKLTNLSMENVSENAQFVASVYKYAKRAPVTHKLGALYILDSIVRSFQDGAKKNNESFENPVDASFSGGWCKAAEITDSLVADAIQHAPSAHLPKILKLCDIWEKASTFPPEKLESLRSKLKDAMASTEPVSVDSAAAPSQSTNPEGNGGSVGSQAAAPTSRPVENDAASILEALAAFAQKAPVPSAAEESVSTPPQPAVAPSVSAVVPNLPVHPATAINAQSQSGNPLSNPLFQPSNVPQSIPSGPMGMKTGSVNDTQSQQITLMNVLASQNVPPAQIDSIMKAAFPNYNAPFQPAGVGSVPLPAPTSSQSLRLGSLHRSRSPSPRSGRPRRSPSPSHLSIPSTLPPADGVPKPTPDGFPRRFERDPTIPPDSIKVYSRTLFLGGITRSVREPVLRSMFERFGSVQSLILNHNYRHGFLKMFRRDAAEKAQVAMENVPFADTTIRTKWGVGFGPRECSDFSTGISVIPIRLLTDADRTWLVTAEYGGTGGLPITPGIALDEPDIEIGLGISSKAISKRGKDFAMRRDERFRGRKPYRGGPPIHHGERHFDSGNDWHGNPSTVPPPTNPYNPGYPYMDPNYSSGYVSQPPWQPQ

binding, binds:
Utp10 (from UniProt O60179 1-1649), Nuc1 (from UniProt P15398 1-1689), SPCC4b3.08 (from UniProt Q9USJ8), SPBC28F2.11 (from UniProt Q9USU7), Rpb10 (from UniProt O13877 1-71), B1, B2, B3, B4, B5, B6
